PubChem BioAssay AID1259308 | NCATS – 2017

Purpose: 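Knock-downs that increase output of a recombinant reporter protein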 (primary screen)
Cell system: human HEK293 embryonic kidney cells stably expressing firefly luciferase (HEK-CMV-Luc2-Hygro)
Knock-down reagent: single siRNA against human genes, 0.8 pmol siRNA per well
Time to read-out: 72 h
Detection: 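Luciferase light (ONE-Glo) measured on one replicate plate set and viability (CellTiter-Glo) on the other, scaled to a negative control siRNA, with robust z-scores and luciferase per cell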
Direction: total luciferase, z-score: higher = more reporter protein produced
Rule for the call: 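An siRNA counts as active if its total luciferase robust z-score exceeds 3; genes with two or more such siRNAs out of three were retested with fresh siRNAs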
Calls: active = raised luciferase; inactive = no rise
The deposit covers about 59,000 reagents; shown is a random part of them. About 1,510 of them (2.6%) were called active. 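Calls use total luciferase alone and ignore viability, so some active siRNAs may act by altering cell number.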 Unmarked entries are inactive. The numbers tell different reagents against one gene apart. Not all columns of the deposit are shown. Reagent sequences are not shown.

ZNF202 #1
- total luciferase, z-score: -0.773

ZNF202 #2
- total luciferase, z-score: 0.39

ZNF202 #3
- total luciferase, z-score: -1.35

CCDC54 #1
- total luciferase, z-score: -0.0908

CCDC54 #2
- total luciferase, z-score: -1.6

CCDC54 #3
- total luciferase, z-score: 0.166

MMADHC #1
- total luciferase, z-score: 1.22

MMADHC #2
- total luciferase, z-score: -1.65

MMADHC #3
- total luciferase, z-score: -1.38

ZBTB7C #1
- total luciferase, z-score: -0.899

ZBTB7C #2
- total luciferase, z-score: 0.478

ZBTB7C #3
- total luciferase, z-score: 2.54

AP2B1 #1
- total luciferase, z-score: 0.0168

AP2B1 #2
- total luciferase, z-score: 1.2

AP2B1 #3
- total luciferase, z-score: 0.868

CFAP107 #1
- total luciferase, z-score: -0.0393

CFAP107 #2
- total luciferase, z-score: 0.107

CFAP107 #3
- total luciferase, z-score: -2.45

MYBPC2 #1
- total luciferase, z-score: 2.66

MYBPC2 #2
- total luciferase, z-score: 0.0436

MYBPC2 #3
- total luciferase, z-score: -0.277

3 consecutive records already listed, quoted:
ZBTB7C #1
- total luciferase, z-score: -0.899

ZBTB7C #2
- total luciferase, z-score: 0.478

ZBTB7C #3
- total luciferase, z-score: 2.54
